Data as given in PubChem BioAssay AID743454 (Peter MacCallum Cancer Centre, 2014).
Screen: 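Search for knock-downs that restore vorinostat killing in resistant colon cancer cells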 (primary screen). Cells: human HCT116-VR colon cancer cells, selected for vorinostat resistance. Reagent: siRNA pool against human genes, 40 nM siRNA pool. Timing: vorinostat for 24 h, read-out about 72 h after transfection. Treatment: vorinostat at 2.5 µM final. Read-out: 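Two measures, CellTiter-Fluor viability and luminescent caspase 3/7 activity, each as fold change against same-plate mock wells, mean of duplicates, then screen-wide robust z-score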. Reading the numbers: viability robust z-score: higher = more viable cells than screen typical; caspase robust z-score: higher = more caspase 3/7 activity than screen typical. Active means: 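a knock-down is a hit when classed RV1 or RV2 for lowered viability, or CA1 or CA2 for caspase activation; those lethal without drug were dropped; hits were retested singly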.
The whole screen tested about 18,000 reagents; below is a part drawn at random. 450 of all reagents (2.5%) count as active. 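Single biological run; no consistent viability z cut-off exists, so the class columns, not z-scores, define the calls.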 Reagent sequences are not shown.

Which result is listed for RPE (ribulose-5-phosphate-3-epimerase)?
viability hit class: no change; caspase hit class: no change; viability robust z-score: 0.07; caspase robust z-score: 0.16; call: inactive

Which result is listed for GJB1 (gap junction protein beta 1)?
viability hit class: no change; caspase hit class: no change; viability robust z-score: -1.37; caspase robust z-score: 2.97; call: inactive

For GALNTL6 (polypeptide N-acetylgalactosaminyltransferase like 6), what was measured?
viability hit class: no change; caspase hit class: no change; viability robust z-score: 0.47; caspase robust z-score: 0.34; call: inactive

What is on record for HSPA12B (heat shock protein family A (Hsp70) member 12B)?
viability hit class: no change; caspase hit class: no change; viability robust z-score: -0.22; caspase robust z-score: -1.07; call: inactive

Which result is listed for OR5P3 (olfactory receptor family 5 subfamily P member 3)?
viability hit class: no change; caspase hit class: no change; viability robust z-score: -0.57; caspase robust z-score: 0.34; call: inactive

With MOS (MOS proto-oncogene, serine/threonine kinase), how do the results read?
viability hit class: no change; caspase hit class: no change; viability robust z-score: 1.02; caspase robust z-score: -0.08; call: inactive

With BPIFC (BPI fold containing family C), what was measured?
viability hit class: no change; caspase hit class: no change; viability robust z-score: 0.12; caspase robust z-score: -0.1; call: inactive

Which result is listed for GPATCH8 (G-patch domain containing 8)?
viability hit class: no change; caspase hit class: no change; viability robust z-score: 0.57; caspase robust z-score: 1.55; call: inactive

Which result is listed for PEMT (phosphatidylethanolamine N-methyltransferase)?
viability hit class: no change; caspase hit class: no change; viability robust z-score: -0.64; caspase robust z-score: -0.5; call: inactive

For MYOZ1 (myozenin 1), what was measured?
viability hit class: no change; caspase hit class: no change; viability robust z-score: -0.47; caspase robust z-score: -0.87; call: inactive

What did the screen give for CALML5 (calmodulin like 5)?
viability hit class: no change; caspase hit class: no change; viability robust z-score: -0.1; caspase robust z-score: 0.04; call: inactive

For AKTIP (AKT interacting protein), what does the deposit list?
viability hit class: no change; caspase hit class: no change; viability robust z-score: 0.46; caspase robust z-score: -0.1; call: inactive

Which result is listed for WDR90 (WD repeat domain 90)?
viability hit class: no change; caspase hit class: no change; viability robust z-score: 0.52; caspase robust z-score: -1.12; call: inactive

For SP5 (Sp5 transcription factor), what was measured?
viability hit class: no change; caspase hit class: no change; viability robust z-score: 0.53; caspase robust z-score: -0.48; call: inactive

Which result is listed for CYREN (cell cycle regulator of NHEJ)?
viability hit class: no change; caspase hit class: no change; viability robust z-score: 1.05; caspase robust z-score: -0.76; call: inactive

Which result is listed for GJB6 (gap junction protein beta 6)?
viability hit class: no change; caspase hit class: no change; viability robust z-score: -1.56; caspase robust z-score: 1.54; call: inactive

What is on record for NIPSNAP1 (nipsnap homolog 1)?
viability hit class: no change; caspase hit class: no change; viability robust z-score: 0.43; caspase robust z-score: 1.01; call: inactive

For GALNT6 (polypeptide N-acetylgalactosaminyltransferase 6), how do the results read?
viability hit class: no change; caspase hit class: no change; viability robust z-score: -0.49; caspase robust z-score: 0.78; call: inactive

How did the screen score EEF2 (eukaryotic translation elongation factor 2)?
viability hit class: no change; caspase hit class: no change; viability robust z-score: -1.02; caspase robust z-score: -0.84; call: inactive

What is on record for C3orf22 (chromosome 3 open reading frame 22)?
viability hit class: no change; caspase hit class: no change; viability robust z-score: -0.72; caspase robust z-score: 0.54; call: inactive

Which result is listed for PDRG1 (p53 and DNA damage regulated 1)?
viability hit class: no change; caspase hit class: no change; viability robust z-score: 1.07; caspase robust z-score: 0.18; call: inactive

What is on record for ZNF121 (zinc finger protein 121)?
viability hit class: no change; caspase hit class: no change; viability robust z-score: -2.02; caspase robust z-score: 2.08; call: inactive

What did the screen give for COPRS (coordinator of PRMT5 and differentiation stimulator)?
viability hit class: no change; caspase hit class: no change; viability robust z-score: -0.03; caspase robust z-score: 2.73; call: inactive

Which result is listed for AKT1 (AKT serine/threonine kinase 1)?
viability hit class: no change; caspase hit class: no change; viability robust z-score: -0.98; caspase robust z-score: 5.03; call: inactive

How did the screen score EBI3 (Epstein-Barr virus induced 3)?
viability hit class: no change; caspase hit class: no change; viability robust z-score: -0.69; caspase robust z-score: 1.18; call: inactive

Which result is listed for GPRC5A (G protein-coupled receptor class C group 5 member A)?
viability hit class: no change; caspase hit class: no change; viability robust z-score: 0.78; caspase robust z-score: -0.3; call: inactive

With RIPOR1 (RHO family interacting cell polarization regulator 1), what was measured?
viability hit class: no change; caspase hit class: no change; viability robust z-score: -0.76; caspase robust z-score: -0.43; call: inactive
